{"source": "patent US5965621A", "about": "“Methods and compositions for reducing or maintaining body weight in a mammal” (Allergan, priority 1998, dated 1999)", "origin": "cited, not measured here", "key": {"[1]": {"system": "rats", "conditions": "intravenous injection"}, "[2]": {"system": "mice", "conditions": "oral administration"}, "[3]": {"system": "animals and humans", "conditions": "Donati et al. 1986, Arsenic et al."}}}
{"compound": "CC(C)(CO)[C@@H](O)C(=O)NCCC(=O)NCCSSCCNC(=O)CCNC(=O)[C@H](O)C(C)(C)CO", "note": "[Pantethine]", "values": [{"measurement": "LD50", "setting": "[1]", "result": 1690, "unit": "mg/kg"}, {"measurement": "LD50", "setting": "[2]", "result": "> 10,000 mg/kg"}, {"measurement": "toxicity (shown to be atoxic)", "setting": "[3]", "result": "atoxic"}]}
